The results in this text go back to the supplement of paper PMC12819154, “High-throughput peptide-centric local stability assay extends protein–ligand identification to membrane proteins, tissues and bacteria” (Nature Structural & Molecular Biology, 2025).

Amino acid sequences for entries named in this document (tags omitted). A change or cut given only in a name is not applied to a line headed by its entry.
UniProt P76406: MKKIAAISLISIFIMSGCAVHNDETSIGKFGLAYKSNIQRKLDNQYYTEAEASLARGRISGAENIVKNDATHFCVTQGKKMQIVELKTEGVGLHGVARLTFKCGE
UniProt P76419: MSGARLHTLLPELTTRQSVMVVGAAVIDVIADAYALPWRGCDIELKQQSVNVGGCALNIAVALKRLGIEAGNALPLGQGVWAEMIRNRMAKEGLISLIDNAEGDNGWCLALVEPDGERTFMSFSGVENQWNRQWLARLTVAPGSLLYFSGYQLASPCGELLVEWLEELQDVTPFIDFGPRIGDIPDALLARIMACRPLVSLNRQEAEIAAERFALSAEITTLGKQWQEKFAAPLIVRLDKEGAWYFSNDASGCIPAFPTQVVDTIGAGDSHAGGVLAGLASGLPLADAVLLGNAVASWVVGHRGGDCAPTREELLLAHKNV
UniProt P76655: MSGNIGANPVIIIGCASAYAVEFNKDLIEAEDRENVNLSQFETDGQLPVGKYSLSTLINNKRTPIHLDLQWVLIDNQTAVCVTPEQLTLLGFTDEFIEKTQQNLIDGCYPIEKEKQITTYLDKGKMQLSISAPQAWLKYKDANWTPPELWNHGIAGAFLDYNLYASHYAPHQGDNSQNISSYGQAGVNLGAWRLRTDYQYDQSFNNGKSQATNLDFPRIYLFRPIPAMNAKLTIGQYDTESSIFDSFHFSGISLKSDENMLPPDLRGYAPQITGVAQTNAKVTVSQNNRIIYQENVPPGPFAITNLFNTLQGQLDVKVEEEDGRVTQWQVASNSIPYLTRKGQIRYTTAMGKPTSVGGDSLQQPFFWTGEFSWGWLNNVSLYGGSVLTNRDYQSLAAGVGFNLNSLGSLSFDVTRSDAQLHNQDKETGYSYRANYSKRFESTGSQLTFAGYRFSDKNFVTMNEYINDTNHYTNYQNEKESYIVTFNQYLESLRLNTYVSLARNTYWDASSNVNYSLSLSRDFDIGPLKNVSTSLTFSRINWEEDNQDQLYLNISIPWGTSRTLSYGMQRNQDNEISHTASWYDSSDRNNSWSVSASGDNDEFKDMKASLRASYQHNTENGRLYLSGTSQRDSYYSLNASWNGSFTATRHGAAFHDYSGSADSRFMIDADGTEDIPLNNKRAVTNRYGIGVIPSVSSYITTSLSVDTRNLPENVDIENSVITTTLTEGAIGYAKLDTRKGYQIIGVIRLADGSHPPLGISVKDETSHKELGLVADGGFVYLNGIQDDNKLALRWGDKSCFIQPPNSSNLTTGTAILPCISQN
UniProt P76543: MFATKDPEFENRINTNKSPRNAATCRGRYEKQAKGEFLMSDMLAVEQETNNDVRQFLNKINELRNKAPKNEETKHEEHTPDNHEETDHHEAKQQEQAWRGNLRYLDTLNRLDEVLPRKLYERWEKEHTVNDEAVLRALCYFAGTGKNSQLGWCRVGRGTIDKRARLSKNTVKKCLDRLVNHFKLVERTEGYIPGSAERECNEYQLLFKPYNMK
UniProt P76236: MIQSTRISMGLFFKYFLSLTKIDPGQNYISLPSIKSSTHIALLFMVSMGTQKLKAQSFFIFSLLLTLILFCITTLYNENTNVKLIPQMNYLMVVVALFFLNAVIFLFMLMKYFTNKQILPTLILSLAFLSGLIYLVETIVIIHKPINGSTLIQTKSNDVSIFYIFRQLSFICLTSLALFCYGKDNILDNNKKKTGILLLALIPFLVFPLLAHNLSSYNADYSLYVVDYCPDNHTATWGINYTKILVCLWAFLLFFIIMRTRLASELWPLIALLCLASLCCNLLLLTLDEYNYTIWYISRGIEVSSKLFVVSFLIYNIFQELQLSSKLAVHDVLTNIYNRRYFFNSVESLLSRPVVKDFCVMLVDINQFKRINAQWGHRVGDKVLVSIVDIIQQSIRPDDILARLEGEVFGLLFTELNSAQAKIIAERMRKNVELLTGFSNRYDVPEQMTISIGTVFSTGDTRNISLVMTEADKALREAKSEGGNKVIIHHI
UniProt P76272: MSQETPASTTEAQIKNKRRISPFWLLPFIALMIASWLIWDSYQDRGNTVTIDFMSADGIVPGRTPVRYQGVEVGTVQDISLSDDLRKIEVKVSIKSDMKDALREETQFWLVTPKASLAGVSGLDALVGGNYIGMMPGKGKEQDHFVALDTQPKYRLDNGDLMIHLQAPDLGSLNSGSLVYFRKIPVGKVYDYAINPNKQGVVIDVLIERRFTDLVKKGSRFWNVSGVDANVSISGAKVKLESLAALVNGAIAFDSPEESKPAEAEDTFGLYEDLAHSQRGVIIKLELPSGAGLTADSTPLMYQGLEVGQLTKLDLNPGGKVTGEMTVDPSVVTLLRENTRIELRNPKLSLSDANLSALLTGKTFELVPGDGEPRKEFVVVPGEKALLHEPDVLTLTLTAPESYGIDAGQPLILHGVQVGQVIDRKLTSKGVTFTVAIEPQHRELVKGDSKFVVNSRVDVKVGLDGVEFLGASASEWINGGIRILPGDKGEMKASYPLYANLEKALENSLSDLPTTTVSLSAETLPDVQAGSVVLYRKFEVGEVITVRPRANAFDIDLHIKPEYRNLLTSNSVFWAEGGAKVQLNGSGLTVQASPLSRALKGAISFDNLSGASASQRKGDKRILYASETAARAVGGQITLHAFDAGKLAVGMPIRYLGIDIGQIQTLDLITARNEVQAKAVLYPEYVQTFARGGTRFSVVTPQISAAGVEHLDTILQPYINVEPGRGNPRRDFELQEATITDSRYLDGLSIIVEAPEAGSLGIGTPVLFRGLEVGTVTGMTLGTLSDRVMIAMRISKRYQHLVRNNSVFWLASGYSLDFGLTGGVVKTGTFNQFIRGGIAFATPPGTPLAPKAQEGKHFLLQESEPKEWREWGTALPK
UniProt P77215: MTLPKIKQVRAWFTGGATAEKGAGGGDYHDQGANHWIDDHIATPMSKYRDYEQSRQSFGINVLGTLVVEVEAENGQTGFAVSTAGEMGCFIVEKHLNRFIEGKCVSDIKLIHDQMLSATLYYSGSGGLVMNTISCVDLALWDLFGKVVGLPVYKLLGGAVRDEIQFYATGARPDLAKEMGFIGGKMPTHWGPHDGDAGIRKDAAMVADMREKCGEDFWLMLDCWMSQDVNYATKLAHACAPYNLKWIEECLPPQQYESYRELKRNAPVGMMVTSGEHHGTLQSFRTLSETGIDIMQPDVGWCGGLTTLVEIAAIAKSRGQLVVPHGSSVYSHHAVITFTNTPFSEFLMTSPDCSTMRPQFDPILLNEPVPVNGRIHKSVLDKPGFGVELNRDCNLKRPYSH
UniProt P76219: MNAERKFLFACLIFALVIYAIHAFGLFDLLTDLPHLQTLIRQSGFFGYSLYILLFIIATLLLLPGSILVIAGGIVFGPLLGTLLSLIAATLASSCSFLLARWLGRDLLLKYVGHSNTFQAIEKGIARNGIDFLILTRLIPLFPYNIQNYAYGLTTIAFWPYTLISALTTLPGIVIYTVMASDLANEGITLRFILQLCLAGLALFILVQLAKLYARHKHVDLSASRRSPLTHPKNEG
UniProt P76083: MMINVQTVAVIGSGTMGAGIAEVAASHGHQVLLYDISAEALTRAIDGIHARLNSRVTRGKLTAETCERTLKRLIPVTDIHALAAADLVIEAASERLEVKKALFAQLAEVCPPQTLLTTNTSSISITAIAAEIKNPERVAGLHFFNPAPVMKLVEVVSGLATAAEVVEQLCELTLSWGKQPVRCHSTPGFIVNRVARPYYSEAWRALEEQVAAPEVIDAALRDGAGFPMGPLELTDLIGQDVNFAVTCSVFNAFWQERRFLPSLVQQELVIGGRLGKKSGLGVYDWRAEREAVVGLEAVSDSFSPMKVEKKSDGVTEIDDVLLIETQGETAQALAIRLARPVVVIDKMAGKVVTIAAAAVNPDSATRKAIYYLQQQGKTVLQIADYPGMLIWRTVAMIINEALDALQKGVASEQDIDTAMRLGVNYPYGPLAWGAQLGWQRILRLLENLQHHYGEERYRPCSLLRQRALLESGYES
UniProt P77333: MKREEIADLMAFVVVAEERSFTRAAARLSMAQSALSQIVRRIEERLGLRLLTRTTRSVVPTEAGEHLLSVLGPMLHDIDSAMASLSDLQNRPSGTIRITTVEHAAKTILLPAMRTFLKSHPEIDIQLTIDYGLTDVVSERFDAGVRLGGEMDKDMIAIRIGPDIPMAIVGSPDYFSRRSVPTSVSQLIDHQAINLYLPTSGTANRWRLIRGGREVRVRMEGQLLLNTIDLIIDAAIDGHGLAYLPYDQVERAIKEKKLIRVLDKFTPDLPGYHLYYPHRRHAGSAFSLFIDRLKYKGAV
UniProt P77148: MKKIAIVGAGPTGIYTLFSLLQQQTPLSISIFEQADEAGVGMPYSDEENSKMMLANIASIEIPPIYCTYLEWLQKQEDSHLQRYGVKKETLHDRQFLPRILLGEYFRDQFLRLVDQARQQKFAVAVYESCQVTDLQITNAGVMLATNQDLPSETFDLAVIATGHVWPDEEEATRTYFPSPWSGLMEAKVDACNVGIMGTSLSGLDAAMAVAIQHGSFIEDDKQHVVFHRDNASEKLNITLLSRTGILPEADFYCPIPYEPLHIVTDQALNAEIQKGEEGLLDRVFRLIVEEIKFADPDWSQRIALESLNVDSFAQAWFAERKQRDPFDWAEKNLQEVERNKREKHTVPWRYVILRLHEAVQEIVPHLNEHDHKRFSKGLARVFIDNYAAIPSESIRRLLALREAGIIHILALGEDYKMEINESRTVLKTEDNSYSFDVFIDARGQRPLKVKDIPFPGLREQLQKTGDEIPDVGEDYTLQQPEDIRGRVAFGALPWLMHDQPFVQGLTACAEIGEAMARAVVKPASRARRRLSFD
UniProt P77334: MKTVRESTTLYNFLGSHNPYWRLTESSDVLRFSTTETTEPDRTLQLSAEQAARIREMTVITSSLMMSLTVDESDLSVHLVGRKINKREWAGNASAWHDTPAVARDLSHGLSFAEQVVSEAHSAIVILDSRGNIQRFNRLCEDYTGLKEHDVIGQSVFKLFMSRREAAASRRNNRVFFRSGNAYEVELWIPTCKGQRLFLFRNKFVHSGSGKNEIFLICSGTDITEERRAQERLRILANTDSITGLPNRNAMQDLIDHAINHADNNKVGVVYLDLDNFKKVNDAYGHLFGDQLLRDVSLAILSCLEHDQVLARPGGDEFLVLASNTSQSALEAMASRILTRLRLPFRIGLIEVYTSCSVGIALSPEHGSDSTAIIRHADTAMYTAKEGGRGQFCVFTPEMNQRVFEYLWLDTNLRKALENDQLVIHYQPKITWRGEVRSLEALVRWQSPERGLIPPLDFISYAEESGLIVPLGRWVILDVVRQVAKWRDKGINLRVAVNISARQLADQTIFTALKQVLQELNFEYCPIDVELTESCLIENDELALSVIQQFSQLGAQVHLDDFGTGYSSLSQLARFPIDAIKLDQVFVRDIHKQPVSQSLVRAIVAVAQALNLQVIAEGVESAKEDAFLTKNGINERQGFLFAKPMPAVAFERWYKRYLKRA
UniProt P77218: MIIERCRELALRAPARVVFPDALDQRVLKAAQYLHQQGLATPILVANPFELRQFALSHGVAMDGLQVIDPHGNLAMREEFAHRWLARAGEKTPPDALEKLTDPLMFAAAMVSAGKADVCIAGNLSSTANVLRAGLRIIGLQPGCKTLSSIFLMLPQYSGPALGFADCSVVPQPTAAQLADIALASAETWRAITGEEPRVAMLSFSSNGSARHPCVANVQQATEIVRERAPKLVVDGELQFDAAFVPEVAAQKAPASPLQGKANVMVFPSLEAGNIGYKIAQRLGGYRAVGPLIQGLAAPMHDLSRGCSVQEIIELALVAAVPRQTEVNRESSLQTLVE
UniProt P76498: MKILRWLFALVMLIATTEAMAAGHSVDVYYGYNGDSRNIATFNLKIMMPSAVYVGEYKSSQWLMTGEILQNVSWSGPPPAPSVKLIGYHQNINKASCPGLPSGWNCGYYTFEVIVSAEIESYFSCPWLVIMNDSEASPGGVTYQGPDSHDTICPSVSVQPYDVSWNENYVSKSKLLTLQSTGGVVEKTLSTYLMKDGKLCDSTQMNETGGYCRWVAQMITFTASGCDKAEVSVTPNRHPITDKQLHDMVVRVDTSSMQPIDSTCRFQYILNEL
UniProt P75974: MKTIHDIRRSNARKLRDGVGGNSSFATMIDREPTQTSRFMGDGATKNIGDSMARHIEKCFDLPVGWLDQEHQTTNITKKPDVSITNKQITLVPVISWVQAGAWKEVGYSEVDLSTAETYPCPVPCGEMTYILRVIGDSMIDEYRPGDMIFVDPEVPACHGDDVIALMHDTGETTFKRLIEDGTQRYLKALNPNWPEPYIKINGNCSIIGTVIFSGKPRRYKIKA
UniProt P76513: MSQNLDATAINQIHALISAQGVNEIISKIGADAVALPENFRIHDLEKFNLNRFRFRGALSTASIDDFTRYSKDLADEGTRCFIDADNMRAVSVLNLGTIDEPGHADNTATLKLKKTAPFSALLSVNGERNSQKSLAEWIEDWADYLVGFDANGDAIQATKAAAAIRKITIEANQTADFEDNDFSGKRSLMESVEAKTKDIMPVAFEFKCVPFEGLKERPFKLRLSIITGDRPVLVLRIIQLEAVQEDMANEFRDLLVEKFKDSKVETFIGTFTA

The list shows a part of the results. Most entries show no effect beyond the scatter of the controls.

Compound in the test: CC1(C)S[C@@H]2[C@H](NC(=O)[C@H](N)c3ccccc3)C(=O)N2[C@H]1C(=O)O [ampicillin]
The test can be described thus: log2 fold change of tryptic peptide abundance, ligand vs vehicle (limited proteolysis) (log2 ratio); higher = more trypsin-susceptible (destabilized). Conditions: ligand concentration: 10 uM; sample: E. coli crude lysate.
Turning to “UniProt P76406 (peptide sequence: MQIVELK, peptide start residue: 81)”, the log2 fold change turned out to be 1.71. In the case of “UniProt P76085 (peptide sequence: FEHLSPHYQLEVNRR, peptide start residue: 351)”, the log2 fold change turned out to be 0.652. For the target “UniProt P76419 (peptide sequence: LHTLLPELTTR, peptide start residue: 6)”, the log2 fold change was -0.347.

With “UniProt P76655 (peptide sequence: LYLSGTSQR, peptide start residue: 622)”, the log2 fold change is -0.255. The same measure for “UniProt P76510 (peptide sequence: VILCLTR, peptide start residue: 94)”: -0.0662. The same measure for “UniProt P76396 (peptide sequence: STPGTEVVLEAPK, peptide start residue: 202)”: 0.238. The same measure for “UniProt P76241 (peptide sequence: LTTVSPQSAKPDPR, peptide start residue: 259)”: -0.391; for “UniProt P76257 (peptide sequence: QLAAMLRPIIEANNGR, peptide start residue: 451)”: -0.407; for “UniProt P76543 (peptide sequence: WEKEHTVNDEAVLR, peptide start residue: 123)”: -0.406.

For the target “UniProt P77280 (peptide sequence: QAPYLVMR, peptide start residue: 253)”, the log2 fold change is 0.322. Regarding “UniProt P76236 (peptide sequence: EAKSEGGNK, peptide start residue: 477)”, the log2 fold change was determined as 0.0593.

Take “UniProt P76226 (peptide sequence: PLLHQCVR, peptide start residue: 12)”: the log2 fold change came out at 0.12. “UniProt P76245 (peptide sequence: EQSLESLVR, peptide start residue: 16)”: the log2 fold change is -0.0806.

In the case of “UniProt P76272 (peptide sequence: ANAFDIDLHIKPEYR, peptide start residue: 550)”, the log2 fold change was -0.158. For “UniProt P77215 (peptide sequence: AWFTGGATAEK, peptide start residue: 11)”, the log2 fold change was -0.146. Next, “UniProt P77338 (peptide sequence: ASSNGDLPTK, peptide start residue: 35)”: 0.276; “UniProt P76556 (peptide sequence: LPAGLLDIGVSKR, peptide start residue: 81)”: -0.335. The same measure for “UniProt P76445 (peptide sequence: VSELLSVPTK, peptide start residue: 130)”: -0.121; for “UniProt P76219 (peptide sequence: RSPLTHPK, peptide start residue: 226)”: 0.33.

In the case of “UniProt P76223 (peptide sequence: KADPAVWGDPSVLDPQKLPDGQR, peptide start residue: 329)”, the log2 fold change stood at 0.274. Next, “UniProt P76083 (peptide sequence: SGLGVYDWR, peptide start residue: 278)”: -0.312. Next, “UniProt P77333 (peptide sequence: LGGEMDKDMIAIR, peptide start residue: 147)”: -0.344. Turning to “UniProt P76633 (peptide sequence: VLDHIPANR, peptide start residue: 217)”, the log2 fold change was -0.427. The same measure for “UniProt P77148 (peptide sequence: QRDPFDWAEK, peptide start residue: 323)”: 0.403. Next, “UniProt P76537 (peptide sequence: AFGNCQKADGDDNR, peptide start residue: 133)”: 0.202; “UniProt P77334 (peptide sequence: TLQLSAEQAAR, peptide start residue: 43)”: -0.942. Next, “UniProt P76213 (peptide sequence: LEFEAAAIYEYPEHLR, peptide start residue: 10)”: 0.359; “UniProt P77624 (peptide sequence: RIVEAPAIK, peptide start residue: 172)”: 0.268; “UniProt P77555 (peptide sequence: MGMEHAIK, peptide start residue: 92)”: -0.268.

For “UniProt P77218 (peptide sequence: APASPLQGK, peptide start residue: 253)”, the log2 fold change is -0.303. Next, “UniProt P76014 (peptide sequence: VVEKLPAIADKDIGFILK, peptide start residue: 49)”: 0.0681; “UniProt P76222 (peptide sequence: LLAVADWR, peptide start residue: 97)”: -0.241; “UniProt P76498 (peptide sequence: LLTLQSTGGVVEK, peptide start residue: 175)”: -0.597. With “UniProt P75974 (peptide sequence: PDVSITNK, peptide start residue: 80)”, the log2 fold change was -0.275. In the case of “UniProt P76594 (peptide sequence: SEVQGVMLYLR, peptide start residue: 533)”, the log2 fold change is -0.239. In the case of “UniProt P76513 (peptide sequence: SLMESVEAK, peptide start residue: 188)”, the log2 fold change is -0.158. As to “UniProt P77364 (peptide sequence: ESLSAEKCCQAIK, peptide start residue: 12)”, the log2 fold change is -0.438.
